Laboratory results taken from PMC6035793.
Results are given in words; binding and its absence hold for the method and conditions named. Binding seen in cells or lysates may run through a third protein. For some of these results: Binding calls can cover weak binding; strength is not graded here.

The chains behind the UniProt entries cited, without tags or fusion partners. Where a name states a change or a piece, a line headed by the entry shows the natural chain unless it says otherwise.
UniProt Q9SSX0: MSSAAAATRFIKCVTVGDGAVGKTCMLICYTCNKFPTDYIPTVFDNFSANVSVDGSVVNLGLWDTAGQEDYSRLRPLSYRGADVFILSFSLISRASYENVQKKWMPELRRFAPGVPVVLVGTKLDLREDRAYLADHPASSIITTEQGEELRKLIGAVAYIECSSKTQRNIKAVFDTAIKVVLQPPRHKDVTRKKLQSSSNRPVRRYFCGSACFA
UniProt Q13153: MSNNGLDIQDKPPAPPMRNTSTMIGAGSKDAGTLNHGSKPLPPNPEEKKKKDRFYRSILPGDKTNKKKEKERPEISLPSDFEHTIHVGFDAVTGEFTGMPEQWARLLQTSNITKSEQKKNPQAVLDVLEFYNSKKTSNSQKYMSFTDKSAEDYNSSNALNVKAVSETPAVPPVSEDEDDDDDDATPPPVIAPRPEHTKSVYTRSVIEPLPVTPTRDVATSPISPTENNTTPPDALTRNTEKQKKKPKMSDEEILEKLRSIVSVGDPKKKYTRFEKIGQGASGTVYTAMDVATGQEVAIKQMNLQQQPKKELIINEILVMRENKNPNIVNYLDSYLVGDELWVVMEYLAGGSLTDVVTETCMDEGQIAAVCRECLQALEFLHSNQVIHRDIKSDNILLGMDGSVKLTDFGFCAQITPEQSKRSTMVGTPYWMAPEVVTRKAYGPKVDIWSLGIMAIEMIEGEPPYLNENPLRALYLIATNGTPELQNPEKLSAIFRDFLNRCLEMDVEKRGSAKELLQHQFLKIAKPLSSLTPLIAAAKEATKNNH

Key:
[1] = biological target: constitutively active (G19V) form of OsRac1 (rice) (UniProt Q9SSX0); test: pull-down; pull-down of PAK CRIB with OsRac1 CA and DN; no details told here (ref. 13)
[2] = biological target: dominant negative (T24N) form of OsRac1 (rice) (UniProt Q9SSX0); test: as above
[3] = biological target: OsRac1 constitutively active (G19V) as it stands in Raichu-CA-OsRac1 (rice) (UniProt Q9SSX0); test: FRET or BRET; intramolecular FRET sensor Raichu-OsRac1 (Venus, PAK CRIB, OsRac1, CFP on one chain) in living rice protoplasts, 10-16 h after transfection; CFP excited at 440 nm, Venus/CFP emission ratio
[4] = biological target: OsRac1 dominant negative (T24N) as it stands in Raichu-DN-OsRac1 (rice) (UniProt Q9SSX0); test: as above

Row | binding [1] | binding [2] | binding [3] | binding [4] | Substance
1 | binds | no binding |  |  | CRIB domain of PAK (Cdc42/Rac interactive binding domain of the Rac-effector PAK1) (from UniProt Q13153) (domain or fragment)
2 |  |  | binds | no binding | CRIB domain of PAK as it stands in the Raichu-OsRac1 FRET sensor (from UniProt Q13153) (domain or fragment)
